# These are yes or no findings as the source states them, for the method shown. Binding seen in cells or lysates may run through a third protein. Some entries that bind do so weakly or less than the wild type.
# Sequences of proteins named here, by UniProt entry; tags and fusion partners are left off.
# UniProt Q9CWL2: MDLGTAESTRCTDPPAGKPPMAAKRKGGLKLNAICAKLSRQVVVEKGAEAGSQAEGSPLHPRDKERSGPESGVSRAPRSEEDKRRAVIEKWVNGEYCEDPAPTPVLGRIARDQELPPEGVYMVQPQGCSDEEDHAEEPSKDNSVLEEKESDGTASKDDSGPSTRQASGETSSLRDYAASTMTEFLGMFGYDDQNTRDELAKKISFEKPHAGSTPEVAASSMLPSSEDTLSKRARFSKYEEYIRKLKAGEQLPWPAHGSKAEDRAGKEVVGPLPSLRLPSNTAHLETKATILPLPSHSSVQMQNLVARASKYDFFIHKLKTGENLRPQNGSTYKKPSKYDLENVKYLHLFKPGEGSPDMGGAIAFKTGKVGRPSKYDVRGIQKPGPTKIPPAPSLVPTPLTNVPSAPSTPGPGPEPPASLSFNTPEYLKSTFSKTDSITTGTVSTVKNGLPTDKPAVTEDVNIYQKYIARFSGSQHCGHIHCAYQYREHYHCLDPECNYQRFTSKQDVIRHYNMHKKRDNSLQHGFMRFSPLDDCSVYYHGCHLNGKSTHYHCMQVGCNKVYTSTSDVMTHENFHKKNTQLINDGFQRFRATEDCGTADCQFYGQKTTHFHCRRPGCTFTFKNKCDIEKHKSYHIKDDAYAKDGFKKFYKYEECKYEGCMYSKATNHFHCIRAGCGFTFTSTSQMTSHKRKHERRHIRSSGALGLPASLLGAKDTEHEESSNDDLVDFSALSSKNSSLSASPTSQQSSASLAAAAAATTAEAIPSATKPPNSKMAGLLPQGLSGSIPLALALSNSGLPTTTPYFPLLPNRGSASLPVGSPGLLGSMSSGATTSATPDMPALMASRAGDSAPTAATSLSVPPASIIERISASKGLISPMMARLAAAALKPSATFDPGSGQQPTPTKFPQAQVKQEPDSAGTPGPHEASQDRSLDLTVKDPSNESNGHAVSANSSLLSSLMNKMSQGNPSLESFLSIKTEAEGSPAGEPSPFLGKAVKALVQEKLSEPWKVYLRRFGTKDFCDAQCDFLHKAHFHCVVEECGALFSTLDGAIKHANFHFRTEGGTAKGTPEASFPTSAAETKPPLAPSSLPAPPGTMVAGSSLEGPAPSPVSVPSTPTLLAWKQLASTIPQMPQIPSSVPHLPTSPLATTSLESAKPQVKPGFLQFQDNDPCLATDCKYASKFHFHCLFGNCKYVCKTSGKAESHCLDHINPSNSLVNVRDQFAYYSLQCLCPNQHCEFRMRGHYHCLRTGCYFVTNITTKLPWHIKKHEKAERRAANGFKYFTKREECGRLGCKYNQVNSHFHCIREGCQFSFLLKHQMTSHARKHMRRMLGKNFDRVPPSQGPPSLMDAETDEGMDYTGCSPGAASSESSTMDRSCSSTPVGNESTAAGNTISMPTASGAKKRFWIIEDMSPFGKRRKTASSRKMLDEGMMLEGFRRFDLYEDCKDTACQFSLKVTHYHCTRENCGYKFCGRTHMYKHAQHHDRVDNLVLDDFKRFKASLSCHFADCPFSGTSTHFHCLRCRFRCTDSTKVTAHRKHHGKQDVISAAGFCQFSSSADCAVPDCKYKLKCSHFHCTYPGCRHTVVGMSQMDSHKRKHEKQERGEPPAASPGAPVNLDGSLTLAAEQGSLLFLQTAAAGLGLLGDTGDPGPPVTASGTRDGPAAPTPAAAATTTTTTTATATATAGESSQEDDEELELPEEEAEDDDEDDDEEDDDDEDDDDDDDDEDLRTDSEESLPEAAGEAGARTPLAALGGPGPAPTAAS
# UniProt Q6PDQ2: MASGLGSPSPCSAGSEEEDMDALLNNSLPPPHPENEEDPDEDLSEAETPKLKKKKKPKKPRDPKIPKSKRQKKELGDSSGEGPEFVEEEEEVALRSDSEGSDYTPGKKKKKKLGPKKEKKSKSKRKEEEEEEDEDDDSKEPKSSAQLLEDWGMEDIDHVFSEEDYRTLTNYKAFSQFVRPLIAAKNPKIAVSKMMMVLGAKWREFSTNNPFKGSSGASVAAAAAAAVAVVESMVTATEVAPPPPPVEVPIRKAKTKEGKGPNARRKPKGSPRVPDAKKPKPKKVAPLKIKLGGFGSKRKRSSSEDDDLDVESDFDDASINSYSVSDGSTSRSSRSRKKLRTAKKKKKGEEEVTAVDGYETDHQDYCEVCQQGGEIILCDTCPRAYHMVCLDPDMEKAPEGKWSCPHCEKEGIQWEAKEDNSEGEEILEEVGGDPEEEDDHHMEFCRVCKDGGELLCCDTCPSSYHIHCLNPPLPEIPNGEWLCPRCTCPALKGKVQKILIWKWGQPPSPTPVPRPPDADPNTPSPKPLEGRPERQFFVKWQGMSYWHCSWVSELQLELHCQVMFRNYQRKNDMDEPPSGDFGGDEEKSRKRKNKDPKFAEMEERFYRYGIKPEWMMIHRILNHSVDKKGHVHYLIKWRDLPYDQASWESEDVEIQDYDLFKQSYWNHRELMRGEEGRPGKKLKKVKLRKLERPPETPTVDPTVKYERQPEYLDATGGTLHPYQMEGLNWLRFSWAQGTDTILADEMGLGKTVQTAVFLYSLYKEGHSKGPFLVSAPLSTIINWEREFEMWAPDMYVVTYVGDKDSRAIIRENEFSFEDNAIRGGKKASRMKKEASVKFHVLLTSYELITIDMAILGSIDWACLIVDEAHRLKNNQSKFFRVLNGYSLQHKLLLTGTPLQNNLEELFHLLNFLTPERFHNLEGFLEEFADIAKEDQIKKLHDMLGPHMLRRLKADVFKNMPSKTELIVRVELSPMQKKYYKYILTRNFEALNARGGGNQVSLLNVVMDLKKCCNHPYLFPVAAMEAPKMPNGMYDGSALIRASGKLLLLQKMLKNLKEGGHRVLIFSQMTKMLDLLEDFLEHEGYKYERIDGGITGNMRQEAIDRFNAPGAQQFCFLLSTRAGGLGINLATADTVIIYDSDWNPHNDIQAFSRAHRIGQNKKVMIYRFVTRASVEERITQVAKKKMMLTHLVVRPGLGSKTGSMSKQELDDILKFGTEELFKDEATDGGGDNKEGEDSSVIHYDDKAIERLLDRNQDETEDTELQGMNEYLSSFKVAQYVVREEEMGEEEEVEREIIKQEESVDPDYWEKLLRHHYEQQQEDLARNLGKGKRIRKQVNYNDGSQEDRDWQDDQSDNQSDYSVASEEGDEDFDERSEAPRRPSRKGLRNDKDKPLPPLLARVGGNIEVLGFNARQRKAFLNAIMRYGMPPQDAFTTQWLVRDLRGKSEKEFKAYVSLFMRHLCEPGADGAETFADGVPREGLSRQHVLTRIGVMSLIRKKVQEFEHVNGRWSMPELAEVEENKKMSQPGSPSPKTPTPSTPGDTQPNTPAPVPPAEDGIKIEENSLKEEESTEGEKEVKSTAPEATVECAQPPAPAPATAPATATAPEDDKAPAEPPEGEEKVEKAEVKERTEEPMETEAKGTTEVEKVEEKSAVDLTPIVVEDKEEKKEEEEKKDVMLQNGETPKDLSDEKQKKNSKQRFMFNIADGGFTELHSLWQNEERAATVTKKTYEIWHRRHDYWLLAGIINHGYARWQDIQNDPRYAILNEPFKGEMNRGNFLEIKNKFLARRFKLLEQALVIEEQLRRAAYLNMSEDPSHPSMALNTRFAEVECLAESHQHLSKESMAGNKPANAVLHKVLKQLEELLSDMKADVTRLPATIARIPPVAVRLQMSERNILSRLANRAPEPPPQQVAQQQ
# UniProt Q92769: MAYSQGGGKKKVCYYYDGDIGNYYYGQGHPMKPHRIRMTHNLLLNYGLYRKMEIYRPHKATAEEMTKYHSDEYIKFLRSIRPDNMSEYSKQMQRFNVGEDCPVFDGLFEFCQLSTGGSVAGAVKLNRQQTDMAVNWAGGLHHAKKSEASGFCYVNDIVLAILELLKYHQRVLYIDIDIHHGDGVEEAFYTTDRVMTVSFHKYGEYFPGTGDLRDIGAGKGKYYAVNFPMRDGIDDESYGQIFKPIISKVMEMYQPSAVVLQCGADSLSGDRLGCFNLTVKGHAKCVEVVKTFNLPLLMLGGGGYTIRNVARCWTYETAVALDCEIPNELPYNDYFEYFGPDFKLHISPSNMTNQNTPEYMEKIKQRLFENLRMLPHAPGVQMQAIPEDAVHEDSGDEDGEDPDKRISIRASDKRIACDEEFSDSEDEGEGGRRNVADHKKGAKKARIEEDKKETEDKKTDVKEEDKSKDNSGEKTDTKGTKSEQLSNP
# UniProt P70288: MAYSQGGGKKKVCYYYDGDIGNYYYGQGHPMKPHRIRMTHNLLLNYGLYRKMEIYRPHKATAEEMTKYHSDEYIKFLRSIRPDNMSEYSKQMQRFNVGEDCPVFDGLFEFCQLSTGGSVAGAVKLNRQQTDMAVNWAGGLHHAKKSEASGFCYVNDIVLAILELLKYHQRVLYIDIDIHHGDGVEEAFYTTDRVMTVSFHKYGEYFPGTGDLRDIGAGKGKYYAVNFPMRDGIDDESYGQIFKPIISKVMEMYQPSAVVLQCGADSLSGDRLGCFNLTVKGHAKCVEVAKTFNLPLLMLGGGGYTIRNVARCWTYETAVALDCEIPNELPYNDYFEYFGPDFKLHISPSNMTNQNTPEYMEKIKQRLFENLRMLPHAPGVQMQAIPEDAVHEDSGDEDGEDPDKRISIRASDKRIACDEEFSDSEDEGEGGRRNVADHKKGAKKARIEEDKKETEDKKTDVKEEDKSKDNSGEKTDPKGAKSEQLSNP
# UniProt Q99496: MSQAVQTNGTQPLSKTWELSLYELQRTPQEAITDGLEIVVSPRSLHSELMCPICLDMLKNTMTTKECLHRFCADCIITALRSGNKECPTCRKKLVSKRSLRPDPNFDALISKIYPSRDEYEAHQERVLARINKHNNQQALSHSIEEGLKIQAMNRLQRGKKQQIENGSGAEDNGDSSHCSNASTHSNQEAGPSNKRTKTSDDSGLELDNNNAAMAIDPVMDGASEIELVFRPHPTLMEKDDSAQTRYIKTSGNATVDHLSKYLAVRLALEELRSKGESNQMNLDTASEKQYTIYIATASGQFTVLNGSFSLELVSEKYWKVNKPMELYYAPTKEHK
# Tests used:
# [1] = target: Casz1 (endogenous, developing retina) (mouse (endogenous in P4 retinas)) (UniProt Q9CWL2); assay: co-IP
# [2] = target: Casz1v1-EGFP fusion protein (mouse) (UniProt Q9CWL2); assay: co-IP
binding [1],binding [2],Substance
binds,,Chd4 (from UniProt Q6PDQ2 1-1915)
,binds,Hdac2 (293Trex) (from UniProt Q92769 1-488) (enzyme)
binds,,Hdac2 (mouse) (from UniProt P70288 1-488) (enzyme)
,no binding,Rnf2 (293Trex) (from UniProt Q99496 1-336)
